Data on 2 molecules can be found in article PMC7929561.

These are yes or no findings as the source states them, for the method shown. In cells and extracts the contact can be indirect. A yes stands for co-enrichment or nearness to the bait. Other partners may have been found.

For this test, the target named is GFP-tagged, full-length Dystroglycan (Dg::GFP) (Drosophila melanogaster). In words: affinity purification with mass spectrometry; Dg::GFP immunoprecipitated with GFP-Trap beads (anti-GFP) from lysates of adult fly heads in RIPA buffer (50 mM Tris-HCl pH 7.5, 125 mM NaCl, 0.5% NP40, 0.25% Na-deoxycholate); SDS-PAGE, in-gel Lys-C digestion, LC-MS/MS; proteins enriched at least twofold over control in two biological replicates taken as Dg interactors.

B1: Sec5 (protein, UniProt Q9VQQ9 1-894)
chain: MAPQPVVTGLSPKEGPPGTRVIIRGEFLGTRVQDLIGLKICGSDCLLSAEWKSPNKIIARTGPAKGKGDIIVTTLSGGVGTSTVQFRAYHETIGPLKESAVWIEESPSQNFAWGRRTLAQSGLTQEDPLGLSIEGNEQKIPEDLRDLFPEACGDLSQEHFSPAWFLLENHLATSFEDLKAGLSYLKRKVESQKEGQLSFLKSNAGSVIDQLDTLMNIRDKLQEDVKLHGNETLNILETSIENSISESQKIFTDVLVRKEKADSTRSVLFALSRHKFLFCLPNSVDRRAKAGEYDIVVNDYSRAKNLFGKTEIPIFRKVLEEVDHRILSIRKQLHEKVVKMPQSVEQQKKLIKALISLELQQSGTPIGDKLRNIDPAWDAIEARAKYLEWTFRQTFDQHTSKDSGAQEKAKNRDSSQAPNRVNFCEELCDIAASQLPDLWRLGQLYFTGELRGPHDPKPGDFKRMVLNAIEKFCVYLRLAILIATDQRALRQSSGLAWPIGSASATHQFLPWIPQCLRFTRIAYATLISLDLPSEALDIIQKLIDEVRLFCFSIIFKRATDRCKKLGSQETWELGVEEYPGATLLPAALETLLIETLDEVQSVCMQRETREGNLLEPQSDGQREVTQRLQEFLSAFSAVIEELAFHSHDEETPTHNVSQLLGFPNAQQPDSVAGSGGAAAVTWEQRMLCCLANYAYCNKIFFPRLGDIFVRYGYPLPTLAIETARYTVNQLFTNLLEEYVEHKGDPLVGTIEPSMYLGRFQWDHEMEIGQLRPYAHECCDNLVGVYSEIYSISPALLRPILESIVQTISEELARLMSCVQRFSFTGAIQAHVDIRLLRDSLEGYVNETAKNYFMEALEAINPPLSGEQKRKADEILERVKRNMRLQLLCFSVKDP
In the case of B1, the binding result was “binds”.

B2: Amphiphysin (Amph) (protein, UniProt Q7KLE5 1-602)
chain: MTENKGIMLAKSVQKHAGRAKEKILQNLGKVDRTADEIFDDHLNNFNRQQASANRLQKEFNNYIRCVRAAQAASKTLMDSVCEIYEPQWSGYDALQAQTGASESLWADFAHKLGDQVLIPLNTYTGQFPEMKKKVEKRNRKLIDYDGQRHSFQNLQANANKRKDDVKLTKGREQLEEARRTYEILNTELHDELPALYDSRILFLVTNLQTLFATEQVFHNETAKIYSELEAIVDKLATESQRGSNTLRKQTSNPIKTSSPVQSPVNKLNNANINSNYQNQITTNGGSSLANSPTSTSSSLQEPRFDSVSSTPEPRPESPAAALVSATPSSPVENGVTTKSLERPELSGLNASAKATTTTQTSPTEDKAVVSEAVKPSETEGAAVAASVTPAPPATPAQINGNNNEPSIVKEGGKQPKELPSTTSNAEAAAEAAANNGNSIEEHKQKKLGNDTTVTATETVTVTQHSVTSTDTDNIVTISDTNTDTDTKTSTGTSQKGRPVPVVNRHSVNNLNKNPFEDDDERIYEVPADANTADLPPGVLYRVKATYGYAKEDVDELSFEIGDLIRVIEYDDPEDQEEGWLMGQKEGTNEKGLFPANFTRPI
With B2, the binding entry was “binds”.
